Data: the supplement of paper PMC3334620
The full ranking holds about 33,000 sequences; the median of “E-score (-0.5 to 0.5)” is about -0.0034, and the highest 2% start at about 0.25. The list shows a part of the results.

Target: T1, Yap3 (UniProt P38749)
T1 sequence: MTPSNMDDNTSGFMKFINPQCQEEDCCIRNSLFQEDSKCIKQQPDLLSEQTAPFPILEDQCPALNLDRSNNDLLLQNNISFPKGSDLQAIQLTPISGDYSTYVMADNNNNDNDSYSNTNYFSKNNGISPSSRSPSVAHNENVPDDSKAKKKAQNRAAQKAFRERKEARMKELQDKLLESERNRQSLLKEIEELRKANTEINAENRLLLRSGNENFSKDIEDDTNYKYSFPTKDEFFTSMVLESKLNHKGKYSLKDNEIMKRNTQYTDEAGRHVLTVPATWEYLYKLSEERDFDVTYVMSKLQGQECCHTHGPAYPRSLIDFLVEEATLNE
Experiment: PBM E-score (8-mer binding enrichment) (E-score (-0.5 to 0.5)); higher = stronger / more preferred TF binding
Details: protein concentration: 100 nM; construct: GST-full length
Protocol: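 Universal 'all 10-mer' protein binding microarrays (Agilent AMADID 015681) probed with GST-tagged S. cerevisiae TFs (full-length or DBD) made by in vitro transcription/translation (PURExpress), about 100-200 nM. Bound TF was detected with fluorescent anti-GST. Each ungapped 8-mer (which stands for itself and its reverse complement) is scored by the PBM enrichment score (E-score), a modified Wilcoxon-Mann-Whitney statistic from -0.5 to +0.5, computed with the Universal PBM Analysis Suite. Scale: above 0.35 generally sequence-specific binding.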

Row | Sequence | PBM E-score
1 | CAATCGAA | 0.0747
2 | CAAGCCCA | -0.113
3 | CACCATCA | -0.0192
4 | AAGCTGGA | -0.124
5 | AACTGGTG | -0.157
6 | GTTTCTCA | 0.0141
7 | TAGAGGCA | -0.0959
8 | AAGTCCGA | -0.0818
9 | AGATACGG | 0.0567
10 | TAAAGGGA | 0.0664
11 | GATATAGC | 0.148
12 | AAGAGCCA | 0.101
13 | GACACATC | -0.0641
14 | CTGCGATA | -0.112
15 | CCTTTTAA | -0.0447
16 | ACGACCGA | -0.0361
17 | GTATTGAC | 0.0197
18 | GGGGAAAC | -0.0891
19 | GGGATGTA | 0.0252
20 | AAGAGACC | -0.0437
21 | ATCCAATG | -0.0901
22 | CTCATGGA | -0.135
23 | CCAGGAGC | -0.31
24 | GACACTCC | -0.0249
25 | CATGACGA | 0.107

Row | Sequence | PBM E-score
26 | CAAAGGAG | 0.0695
27 | TCATGAGA | 0.0159
28 | CACTGATG | -0.175
29 | GCGCCGTA | -0.00389
30 | GACGGCCA | -0.0623
31 | AAACGTGT | -0.0207
32 | ATAAAGAG | 0.0509
33 | AACGATCC | -0.191
34 | AGTAAATG | 0.0753
35 | ACTTTGAG | -0.0896
36 | GCTTTGTA | 0.259
37 | ATTGCATG | 0.122
38 | CCCTGCCC | -0.244
39 | CAAGCCGC | -0.248
40 | AATGGTCG | -0.143
41 | AAGGGGGT | -0.355
42 | CAGTCCTC | -0.2
43 | ATCCCGTC | -0.0813
44 | ACGGTACA | 0.136
45 | GGGAGCAC | -0.323
46 | CACCATAA | 0.152
47 | ATCATTCG | 0.206
48 | TACCAGCA | -0.0181
49 | AGATGGCG | 0.103
50 | GTCTAGGA | -0.161

Row | Sequence | PBM E-score
51 | AGGTGTGG | -0.121
52 | ACCTGTGA | 0.0275
53 | GTATTTTA | 0.0831
54 | CAAGCCCG | -0.296
55 | ACTTATAA | 0.148
56 | TCTGAGAA | 0.111
57 | ATAAGTCA | 0.262
58 | GATTGTAC | -0.0108
59 | CCAATACA | 0.162
60 | GAAGTTAC | 0.175
61 | AGTAGCAG | 0.0436
62 | ATCGCGAG | 0.167
63 | AAAATCAC | 0.158
64 | CCCGCGAG | -0.113
65 | GGACTTAA | -0.0964
66 | CGAACCAA | -0.00985
67 | AAAGTTCG | 0.181
68 | AACCGTAG | -0.193
69 | ATTTGCTA | 0.181
70 | AAAATTTT | 0.246
71 | GTAGAAAC | 0.0115
72 | AAGGTGAA | 0.0235
73 | AGTCAAGA | -0.0596
74 | CGAAGCAA | 0.0791
75 | ACCCAGTC | -0.0488

Row | Sequence | PBM E-score
76 | CCTCAACA | 0.102
77 | TCCCAACA | -0.0353
78 | CGCTCAAG | -0.114
79 | AGTCCTAT | 0.0522
80 | CACACTGC | -0.0177
81 | CAGTTCCA | -0.0933
82 | AAGTGGCT | -0.0321
83 | CCGTTTCC | 0.0637
84 | CGTCCCTC | -0.209
85 | CATGTTCG | -0.0904
86 | TAACGTGA | 0.0273
87 | CCGAAAGC | -0.21
88 | GGGATGGA | -0.171
89 | GCAGACTA | -0.0847
90 | ATCCCAGC | -0.0719
91 | CTTACCTC | 0.0214
92 | ACGCTGCG | -0.0892
93 | CGAAAAAA | 0.229
94 | AGCCACTC | -0.154
95 | GGCATAGA | 0.0675
96 | GATGTTAC | 0.104
97 | CAAGGCCG | -0.0878
98 | AAGTAGTC | -0.0821
99 | TCAGAGGA | -0.122
100 | CGCTGCAG | -0.0323

Row | Sequence | PBM E-score
101 | CACAGTGC | -0.0614
102 | CTCCCGAA | -0.124
103 | ATCCACTA | 0.124
104 | CTTCACGC | 0.128
105 | CCTTTCCG | -0.215
106 | AAAATGCA | -0.0446
107 | AACTCAGA | -0.0359
108 | AAACCAAT | 0.136
109 | GCGTTAAA | -0.0726
110 | GGAAACCC | 0.0773
111 | GCCTTTCC | -0.15
112 | GCATATCA | 0.191
113 | AACGTATT | 0.0931
114 | GGGGAGAC | -0.304
115 | AGCAGTAT | 0.159
116 | CAACATGA | 0.108
117 | CAGCTAAA | -0.044
118 | CCTATCCC | 0.0708
119 | AATTACAG | 0.195
120 | ATGTGCCA | 0.0129
121 | CCACTGGA | -0.147
122 | ATCCTGAG | -0.0543
123 | CTTAAAGC | -0.0553
124 | CCGATTGA | 0.0881
125 | CCATGGCG | -0.0321

Row | Sequence | PBM E-score
126 | AACGTGAT | 0.113
127 | AGACGCCC | -0.165
128 | AAATTTTA | 0.118
129 | GCGCCACA | -0.00462
130 | CCAAAATC | 0.123
131 | AGAGCCCG | -0.237
132 | ATTAACAA | 0.282
133 | GAACACCA | -0.103
134 | CCTCCAAG | -0.0941
135 | AGGCACCA | -0.0616
136 | AATCGATA | 0.229
137 | ACCGTTAT | 0.141
138 | ACTCATCA | -0.0345
139 | CCTTCCGC | -0.175
140 | GAATGACC | 0.0254
141 | ACGCCTAC | -0.178
142 | AATAGTTA | 0.0935
143 | CATTAGTA | 0.289
144 | GAGCAATA | -0.0269
145 | AGCACTTC | -0.0014
146 | AAGTGGGG | -0.178
147 | ACCCATCC | -0.241
148 | TCGTTAAA | 0.108
149 | CACATCTC | 0.198
150 | TCATCAAA | -0.0185

Fetched one by one from above, six records:
Row | Sequence | PBM E-score
139 | CCTTCCGC | -0.175
140 | GAATGACC | 0.0254
133 | GAACACCA | -0.103
137 | ACCGTTAT | 0.141
150 | TCATCAAA | -0.0185
143 | CATTAGTA | 0.289

More entries.

Row | Sequence | PBM E-score
151 | TCGATAGA | -0.0154
152 | AAGTGGAG | 0.159
153 | CAAAACGA | 0.133
154 | CAAATTAA | 0.155
155 | ATGAGATC | 0.0571
156 | CACGACGA | -0.214
157 | ATCCGTTC | 0.057
158 | AATACAAT | 0.18
159 | AACGGTGA | -0.0384
160 | ACACATGC | 0.0454
161 | GAGGATCC | -0.0934
162 | GTCTCGTA | -0.0465
163 | CATTCTGC | 0.126
164 | ATCACCTA | 0.00994
165 | TAAACAGA | 0.0916
166 | CTCAAGCA | -0.191
167 | AATCATGC | -0.0909
168 | AAGAACGT | 0.125
169 | CCCCATGC | -0.303
170 | TTCGTCAA | 0.0747
171 | CAATTCAG | -0.0246
172 | GTCTAAAC | 0.174
